For 22 molecules, survivor count and T/C results are on record in PubChem BioAssay AID328 (DTP/NCI, 2004).

The list is a part of this screen's results and no random one: it is rich in T/C values a quarter to a half above the control, in often repeated tests (any T/C) and in doses without a T/C. Further doses and runs are listed elsewhere. T/C gives the treated animals as a percentage of the vehicle group. Some entries give survivors of the animals treated and no T/C: the source files T/C as zero there, which appears to mark a toxic dose or a test without result, not a measured value. Some doses without a T/C left all or most animals alive at the check, yet need not have been tolerated: the source hardly ever lists a survival T/C far under the control, and the zero likely stands for such cases as well. Counts of survivors are from the toxicity check (mostly the fifth day) where no day follows; animals may have died later. Schedules are NCI's codes, read here as Q, the interval in days (D) or hours (H), X, the number of doses. Where survival is the endpoint, the PubChem record calls one and a half times the control and up active, and a quarter to a half above the control has no call in these data; cut-offs in other NCI protocols can differ. Some T/C values are followed by the survivors on the day toxicity was checked, most often the fifth; without a count, all were alive then.

In the test the test system is BDF1 mice, P388 leukemia ip, median survival T/C. Put plainly: NCI In Vivo Anticancer Drug Screen. Data for tumor model P388 Leukemia (intraperitoneal) in B6D2F1 (BDF1) mice. The conditions noted are these: T/C endpoint: median survival time, higher T/C = longer survival. A digest of the protocol:
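Each value expresses how treatment altered survival: treated-mouse outcome over vehicle-mouse outcome, both groups bearing the transplanted tumour.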

Setting [1] is: dose: 50.0 mg/kg/injection, schedule: Q01DX009 (ip), vehicle: saline with Tween-80.
[2] abbreviates: dose: 200.0 mg/kg/injection, schedule: Q01DX009 (ip), vehicle: saline with Tween-80.
The mark [3] stands for this setting: dose: 200.0 mg/kg/injection, schedule: Q01DX009 (ip), vehicle: Klucel (hydroxypropylcellulose) (HPC).
The mark [4] stands for this setting: dose: 400.0 mg/kg/injection, schedule: Q01DX009 (ip), vehicle: Klucel (hydroxypropylcellulose) (HPC).
Where [5] appears, read: dose: 400.0 mg/kg/injection, schedule: Q04DX003 (ip), vehicle: saline with Tween-80.
Where [6] appears, read: dose: 3.0 mg/kg/injection, schedule: Q01DX009 (ip), vehicle: Klucel (hydroxypropylcellulose) (HPC).
Where [7] appears, read: dose: 100.0 mg/kg/injection, schedule: Q01DX009 (ip), vehicle: saline with Tween-80.

For `CC(C)CCC[C@@H](C)[C@H]1CC[C@H]2[C@@H]3CC[C@H]4C[C@H]5N[C@H]5C[C@]4(C)[C@H]3CC[C@]12C`, the survivor count (dose: 25.0 mg/kg/injection, schedule: Q01DX001 (ip), vehicle: saline sonified) is on record as 6 of 6.
With `NC(CO)Cc1ccccc1` (stereo unspecified), under “dose: 50.0 mg/kg/injection, schedule: Q01DX009 (ip), vehicle: Klucel (hydroxypropylcellulose) (HPC)”, the survivor count is 0 of 6.
For `CCC[CH2][Sn]1([CH2]CCC)[O]OC2(CCCCC2)[O]1`, the T/C (dose: 2.5 mg/kg/injection, schedule: Q01DX009 (ip), vehicle: Klucel (hydroxypropylcellulose) (HPC)) was 144 % of control. The survivor count by setting is: (dose: 6.25 mg/kg/injection, schedule: Q04DX003 (ip), vehicle: saline sonified) 6 of 6; (dose: 10.0 mg/kg/injection, schedule: Q01DX009 (ip), vehicle: Klucel (hydroxypropylcellulose) (HPC)) 0 of 6.
In the case of `CC1(C)N=C(N)N=C(N)N1c1ccc(F)cc1`, the survivor count is recorded as 2 of 6 (dose: 100.0 mg/kg/injection, schedule: Q01DX005 (ip), vehicle: Klucel (hydroxypropylcellulose) (HPC)) and 0 of 6 (dose: 200.0 mg/kg/injection, schedule: Q01DX005 (ip), vehicle: Klucel (hydroxypropylcellulose) (HPC)).
On to `COC1C=COC2(C)Oc3c(C)c(O)c4c(c3C2=O)/C(=N/C2CCC(O)OC2C)C=C(NC(=O)/C(C)=C\C(=O)C2CC2C(O)C(C)C(O)C(C)C(OC(C)=O)C1C)C4=O` (stereo unspecified), for which, under “dose: 75.0 mg/kg/injection, schedule: Q01DX009 (ip), vehicle: saline with Tween-80”, the survivor count is listed as 6 of 6.
For the molecule `CC1(C)N=C(N)N=C(N)N1c1ccc(OCCOc2ccc(NC(=O)CBr)cc2)cc1`, the T/C (dose: 10.0 mg/kg/injection, schedule: Q01DX009 (ip), vehicle: saline with Tween-80) was 125 % of control; the T/C (dose: 44.0 mg/kg/injection, schedule: Q01DX009 (ip), vehicle: saline with Tween-80) was 140 % of control; the T/C (dose: 44.0 mg/kg/injection, schedule: Q04DX003 (ip), vehicle: saline sonified) was 135 % of control; the T/C (dose: 66.0 mg/kg/injection, schedule: Q01DX009 (ip), vehicle: saline with Tween-80) was 145 % of control; the T/C (dose: 66.0 mg/kg/injection, schedule: Q04DX003 (ip), vehicle: saline sonified) is 135 % of control. For the same molecule, for the setting “dose: 400.0 mg/kg/injection, schedule: Q01DX009 (ip), vehicle: saline”, the survivor count is 5 of 6.
As to `CCCCC/C(C=C(C#N)C#N)=C/c1ccccc1`, the T/C under setting [1] was 128 % of control. Besides, the survivor count under setting [2] was 1 of 6.
`CCC[CH2][Sn]1([CH2]CCC)[O]OC(C)(CC)[O]1` (stereo unspecified): the T/C runs as follows: (dose: 1.56 mg/kg/injection, schedule: Q01DX009 (ip), vehicle: saline with Tween-80) 138 % of control [5 of 6 alive]; (dose: 3.13 mg/kg/injection, schedule: Q01DX009 (ip), vehicle: saline with Tween-80) 147 % of control. For the same molecule, the survivor count (dose: 6.25 mg/kg/injection, schedule: Q01DX009 (ip), vehicle: saline with Tween-80) was 1 of 6.
As to `O=C1CCCCC1Oc1ccccc1` (stereo unspecified), the survivor count (dose: 400.0 mg/kg/injection, schedule: Q01DX009 (ip), vehicle: saline with Tween-80) is 6 of 6.
For the molecule `CCCCCCCCCCCCOP(N)(=O)OCCCCCCCCCCCC`, the survivor count is given as 5 of 6 (dose: 100.0 mg/kg/injection, schedule: Q01DX009 (ip), vehicle: Klucel (hydroxypropylcellulose) (HPC)); 4 of 6 under setting [3]; 5 of 6 under setting [2]; 0 of 6 under setting [4]; 2 of 6 under setting [5].
For `O=C(c1ccccc1)C1C(c2ccccc2)C2(CCCCC2=O)C(c2ccccc2)CC1(O)c1ccccc1` (stereo unspecified), the survivor count is reported as 6 of 6 (dose: 50.0 mg/kg/injection, schedule: Q01DX001 (ip), vehicle: Klucel (hydroxypropylcellulose) (HPC)) and 6 of 6 (dose: 100.0 mg/kg/injection, schedule: Q01DX001 (ip), vehicle: Klucel (hydroxypropylcellulose) (HPC)).
For the molecule `CCOC(=O)N1CCN(C(=O)OCC)CC1`, the survivor count reads like this: (dose: 200.0 mg/kg/injection, schedule: Q04DX003 (ip), vehicle: saline with Tween-80) 6 of 6; under setting [5], 2 of 6.
`CS(=O)(=O)c1ncc2cnccn12`: the survivor count was 5 of 6 (dose: 200.0 mg/kg/injection, schedule: Q04DX003 (ip), vehicle: water) and 2 of 6 (dose: 400.0 mg/kg/injection, schedule: Q04DX003 (ip), vehicle: water).
Consider `Cc1ccc(C)c(C(C)NC2=NCCO2)c1` (stereo unspecified), for which, under “dose: 100.0 mg/kg/injection, schedule: Q04DX003 (ip), vehicle: saline with Tween-80”, the survivor count is listed as 2 of 6.
With `C[CH2][Pb]([CH2]C)([CH2]C)[O]C(=O)CBr`, the T/C reads like this: under setting [6], 136 % of control; (dose: 3.0 mg/kg/injection, schedule: Q01DX009 (ip), vehicle: other) 129 % of control. Also, the survivor count (dose: 6.0 mg/kg/injection, schedule: Q01DX009 (ip), vehicle: other) is recorded as 5 of 6.
As to `OCC1(c2ccccc2)CCN(Cc2ccccc2)CC1`, the survivor count by setting is: under setting [3], 2 of 6; under setting [4], 0 of 6; (dose: 400.0 mg/kg/injection, schedule: Q04DX003 (ip), vehicle: Klucel (hydroxypropylcellulose) (HPC)) 5 of 6.
For the molecule `CC[C@]12CN3CCc4c([nH]c5ccccc45)[C@@](C(=O)OC)(c4cc5c(cc4OC)N(C)[C@H]4[C@@](O)(C(=O)OC)[C@H](OC(C)=O)[C@]6(CC)C=CCN7CC[C@]54[C@@H]76)CC(C3)[C@H]1O2` (stereo partly specified), the T/C (dose: 0.25 mg/kg/injection, schedule: Q01DX009 (ip), vehicle: saline) is 135 % of control; the T/C (dose: 0.75 mg/kg/injection, schedule: Q01DX009 (ip), vehicle: Klucel (hydroxypropylcellulose) (HPC)) was 146 % of control; the T/C (dose: 1.5 mg/kg/injection, schedule: Q01DX009 (ip), vehicle: Klucel (hydroxypropylcellulose) (HPC)) is 146 % of control; the T/C under setting [6] is 138 % of control. Further, the survivor count is, setting by setting: (dose: 1.5 mg/kg/injection, schedule: Q01DX009 (ip), vehicle: none) 6 of 6; (dose: 3.0 mg/kg/injection, schedule: Q01DX009 (ip), vehicle: none) 6 of 6; (dose: 4.0 mg/kg/injection, schedule: Q01DX009 (ip), vehicle: saline with Tween-80) 5 of 6; (dose: 6.0 mg/kg/injection, schedule: Q01DX009 (ip), vehicle: none) 6 of 6; (dose: 12.0 mg/kg/injection, schedule: Q01DX009 (ip), vehicle: none) 6 of 6; (dose: 24.0 mg/kg/injection, schedule: Q01DX009 (ip), vehicle: none) 6 of 6. For the setting “dose: 24.0 mg/kg/injection, schedule: Q01DX009 (ip), vehicle: saline”, the survivor count was 0 of 6.
On to `S=C(NCCNC(=S)[S][Sn]([c]1ccccc1)([c]1ccccc1)[c]1ccccc1)[S][Sn]([c]1ccccc1)([c]1ccccc1)[c]1ccccc1`, for which the T/C is 132 % of control (dose: 11.3 mg/kg/injection, schedule: Q01DX009 (ip), vehicle: saline with Tween-80) and 136 % of control (dose: 25.0 mg/kg/injection, schedule: Q01DX009 (ip), vehicle: saline with Tween-80). Besides, the survivor count under setting [7] is 4 of 6.
In the case of `COC(=O)C(F)C(Br)C(=O)OC` (stereo unspecified), the T/C under setting [1] was 141 % of control and the T/C under setting [7] is 125 % of control [5 of 6 alive]. The survivor count by setting is: under setting [7], 3 of 6; under setting [2], 0 of 6.
As for `O=[n+]1c2c(n([O-])c3ccccc31)-c1cccc3cccc-2c13`, the survivor count (dose: 200.0 mg/kg/injection, schedule: Q01DX010 (ip), vehicle: saline) is 6 of 6.
For `CCN(CC)c1ccc2nc3ccc(N=Nc4c(O)ccc5ccccc45)cc3[n+](-c3ccccc3)c2c1`, the survivor count reads like this: (dose: 50.0 mg/kg/injection, schedule: Q01DX005 (ip), vehicle: saline with Tween-80) 0 of 5; (dose: 100.0 mg/kg/injection, schedule: Q01DX005 (ip), vehicle: saline with Tween-80) 0 of 5; (dose: 200.0 mg/kg/injection, schedule: Q01DX005 (ip), vehicle: saline with Tween-80) 0 of 5.
As to `c1ccc(-c2nnn(-c3ccccc3)n2)cc1`, the survivor count under setting [7] is recorded as 5 of 6.
